Here are results for 4 substances from patent US7067646.

Amino acid sequences for entries named in this document (tags omitted). A change or cut given only in a name is not applied to a line headed by its entry. Residues count along the entry.
UniProt Q5T4S7: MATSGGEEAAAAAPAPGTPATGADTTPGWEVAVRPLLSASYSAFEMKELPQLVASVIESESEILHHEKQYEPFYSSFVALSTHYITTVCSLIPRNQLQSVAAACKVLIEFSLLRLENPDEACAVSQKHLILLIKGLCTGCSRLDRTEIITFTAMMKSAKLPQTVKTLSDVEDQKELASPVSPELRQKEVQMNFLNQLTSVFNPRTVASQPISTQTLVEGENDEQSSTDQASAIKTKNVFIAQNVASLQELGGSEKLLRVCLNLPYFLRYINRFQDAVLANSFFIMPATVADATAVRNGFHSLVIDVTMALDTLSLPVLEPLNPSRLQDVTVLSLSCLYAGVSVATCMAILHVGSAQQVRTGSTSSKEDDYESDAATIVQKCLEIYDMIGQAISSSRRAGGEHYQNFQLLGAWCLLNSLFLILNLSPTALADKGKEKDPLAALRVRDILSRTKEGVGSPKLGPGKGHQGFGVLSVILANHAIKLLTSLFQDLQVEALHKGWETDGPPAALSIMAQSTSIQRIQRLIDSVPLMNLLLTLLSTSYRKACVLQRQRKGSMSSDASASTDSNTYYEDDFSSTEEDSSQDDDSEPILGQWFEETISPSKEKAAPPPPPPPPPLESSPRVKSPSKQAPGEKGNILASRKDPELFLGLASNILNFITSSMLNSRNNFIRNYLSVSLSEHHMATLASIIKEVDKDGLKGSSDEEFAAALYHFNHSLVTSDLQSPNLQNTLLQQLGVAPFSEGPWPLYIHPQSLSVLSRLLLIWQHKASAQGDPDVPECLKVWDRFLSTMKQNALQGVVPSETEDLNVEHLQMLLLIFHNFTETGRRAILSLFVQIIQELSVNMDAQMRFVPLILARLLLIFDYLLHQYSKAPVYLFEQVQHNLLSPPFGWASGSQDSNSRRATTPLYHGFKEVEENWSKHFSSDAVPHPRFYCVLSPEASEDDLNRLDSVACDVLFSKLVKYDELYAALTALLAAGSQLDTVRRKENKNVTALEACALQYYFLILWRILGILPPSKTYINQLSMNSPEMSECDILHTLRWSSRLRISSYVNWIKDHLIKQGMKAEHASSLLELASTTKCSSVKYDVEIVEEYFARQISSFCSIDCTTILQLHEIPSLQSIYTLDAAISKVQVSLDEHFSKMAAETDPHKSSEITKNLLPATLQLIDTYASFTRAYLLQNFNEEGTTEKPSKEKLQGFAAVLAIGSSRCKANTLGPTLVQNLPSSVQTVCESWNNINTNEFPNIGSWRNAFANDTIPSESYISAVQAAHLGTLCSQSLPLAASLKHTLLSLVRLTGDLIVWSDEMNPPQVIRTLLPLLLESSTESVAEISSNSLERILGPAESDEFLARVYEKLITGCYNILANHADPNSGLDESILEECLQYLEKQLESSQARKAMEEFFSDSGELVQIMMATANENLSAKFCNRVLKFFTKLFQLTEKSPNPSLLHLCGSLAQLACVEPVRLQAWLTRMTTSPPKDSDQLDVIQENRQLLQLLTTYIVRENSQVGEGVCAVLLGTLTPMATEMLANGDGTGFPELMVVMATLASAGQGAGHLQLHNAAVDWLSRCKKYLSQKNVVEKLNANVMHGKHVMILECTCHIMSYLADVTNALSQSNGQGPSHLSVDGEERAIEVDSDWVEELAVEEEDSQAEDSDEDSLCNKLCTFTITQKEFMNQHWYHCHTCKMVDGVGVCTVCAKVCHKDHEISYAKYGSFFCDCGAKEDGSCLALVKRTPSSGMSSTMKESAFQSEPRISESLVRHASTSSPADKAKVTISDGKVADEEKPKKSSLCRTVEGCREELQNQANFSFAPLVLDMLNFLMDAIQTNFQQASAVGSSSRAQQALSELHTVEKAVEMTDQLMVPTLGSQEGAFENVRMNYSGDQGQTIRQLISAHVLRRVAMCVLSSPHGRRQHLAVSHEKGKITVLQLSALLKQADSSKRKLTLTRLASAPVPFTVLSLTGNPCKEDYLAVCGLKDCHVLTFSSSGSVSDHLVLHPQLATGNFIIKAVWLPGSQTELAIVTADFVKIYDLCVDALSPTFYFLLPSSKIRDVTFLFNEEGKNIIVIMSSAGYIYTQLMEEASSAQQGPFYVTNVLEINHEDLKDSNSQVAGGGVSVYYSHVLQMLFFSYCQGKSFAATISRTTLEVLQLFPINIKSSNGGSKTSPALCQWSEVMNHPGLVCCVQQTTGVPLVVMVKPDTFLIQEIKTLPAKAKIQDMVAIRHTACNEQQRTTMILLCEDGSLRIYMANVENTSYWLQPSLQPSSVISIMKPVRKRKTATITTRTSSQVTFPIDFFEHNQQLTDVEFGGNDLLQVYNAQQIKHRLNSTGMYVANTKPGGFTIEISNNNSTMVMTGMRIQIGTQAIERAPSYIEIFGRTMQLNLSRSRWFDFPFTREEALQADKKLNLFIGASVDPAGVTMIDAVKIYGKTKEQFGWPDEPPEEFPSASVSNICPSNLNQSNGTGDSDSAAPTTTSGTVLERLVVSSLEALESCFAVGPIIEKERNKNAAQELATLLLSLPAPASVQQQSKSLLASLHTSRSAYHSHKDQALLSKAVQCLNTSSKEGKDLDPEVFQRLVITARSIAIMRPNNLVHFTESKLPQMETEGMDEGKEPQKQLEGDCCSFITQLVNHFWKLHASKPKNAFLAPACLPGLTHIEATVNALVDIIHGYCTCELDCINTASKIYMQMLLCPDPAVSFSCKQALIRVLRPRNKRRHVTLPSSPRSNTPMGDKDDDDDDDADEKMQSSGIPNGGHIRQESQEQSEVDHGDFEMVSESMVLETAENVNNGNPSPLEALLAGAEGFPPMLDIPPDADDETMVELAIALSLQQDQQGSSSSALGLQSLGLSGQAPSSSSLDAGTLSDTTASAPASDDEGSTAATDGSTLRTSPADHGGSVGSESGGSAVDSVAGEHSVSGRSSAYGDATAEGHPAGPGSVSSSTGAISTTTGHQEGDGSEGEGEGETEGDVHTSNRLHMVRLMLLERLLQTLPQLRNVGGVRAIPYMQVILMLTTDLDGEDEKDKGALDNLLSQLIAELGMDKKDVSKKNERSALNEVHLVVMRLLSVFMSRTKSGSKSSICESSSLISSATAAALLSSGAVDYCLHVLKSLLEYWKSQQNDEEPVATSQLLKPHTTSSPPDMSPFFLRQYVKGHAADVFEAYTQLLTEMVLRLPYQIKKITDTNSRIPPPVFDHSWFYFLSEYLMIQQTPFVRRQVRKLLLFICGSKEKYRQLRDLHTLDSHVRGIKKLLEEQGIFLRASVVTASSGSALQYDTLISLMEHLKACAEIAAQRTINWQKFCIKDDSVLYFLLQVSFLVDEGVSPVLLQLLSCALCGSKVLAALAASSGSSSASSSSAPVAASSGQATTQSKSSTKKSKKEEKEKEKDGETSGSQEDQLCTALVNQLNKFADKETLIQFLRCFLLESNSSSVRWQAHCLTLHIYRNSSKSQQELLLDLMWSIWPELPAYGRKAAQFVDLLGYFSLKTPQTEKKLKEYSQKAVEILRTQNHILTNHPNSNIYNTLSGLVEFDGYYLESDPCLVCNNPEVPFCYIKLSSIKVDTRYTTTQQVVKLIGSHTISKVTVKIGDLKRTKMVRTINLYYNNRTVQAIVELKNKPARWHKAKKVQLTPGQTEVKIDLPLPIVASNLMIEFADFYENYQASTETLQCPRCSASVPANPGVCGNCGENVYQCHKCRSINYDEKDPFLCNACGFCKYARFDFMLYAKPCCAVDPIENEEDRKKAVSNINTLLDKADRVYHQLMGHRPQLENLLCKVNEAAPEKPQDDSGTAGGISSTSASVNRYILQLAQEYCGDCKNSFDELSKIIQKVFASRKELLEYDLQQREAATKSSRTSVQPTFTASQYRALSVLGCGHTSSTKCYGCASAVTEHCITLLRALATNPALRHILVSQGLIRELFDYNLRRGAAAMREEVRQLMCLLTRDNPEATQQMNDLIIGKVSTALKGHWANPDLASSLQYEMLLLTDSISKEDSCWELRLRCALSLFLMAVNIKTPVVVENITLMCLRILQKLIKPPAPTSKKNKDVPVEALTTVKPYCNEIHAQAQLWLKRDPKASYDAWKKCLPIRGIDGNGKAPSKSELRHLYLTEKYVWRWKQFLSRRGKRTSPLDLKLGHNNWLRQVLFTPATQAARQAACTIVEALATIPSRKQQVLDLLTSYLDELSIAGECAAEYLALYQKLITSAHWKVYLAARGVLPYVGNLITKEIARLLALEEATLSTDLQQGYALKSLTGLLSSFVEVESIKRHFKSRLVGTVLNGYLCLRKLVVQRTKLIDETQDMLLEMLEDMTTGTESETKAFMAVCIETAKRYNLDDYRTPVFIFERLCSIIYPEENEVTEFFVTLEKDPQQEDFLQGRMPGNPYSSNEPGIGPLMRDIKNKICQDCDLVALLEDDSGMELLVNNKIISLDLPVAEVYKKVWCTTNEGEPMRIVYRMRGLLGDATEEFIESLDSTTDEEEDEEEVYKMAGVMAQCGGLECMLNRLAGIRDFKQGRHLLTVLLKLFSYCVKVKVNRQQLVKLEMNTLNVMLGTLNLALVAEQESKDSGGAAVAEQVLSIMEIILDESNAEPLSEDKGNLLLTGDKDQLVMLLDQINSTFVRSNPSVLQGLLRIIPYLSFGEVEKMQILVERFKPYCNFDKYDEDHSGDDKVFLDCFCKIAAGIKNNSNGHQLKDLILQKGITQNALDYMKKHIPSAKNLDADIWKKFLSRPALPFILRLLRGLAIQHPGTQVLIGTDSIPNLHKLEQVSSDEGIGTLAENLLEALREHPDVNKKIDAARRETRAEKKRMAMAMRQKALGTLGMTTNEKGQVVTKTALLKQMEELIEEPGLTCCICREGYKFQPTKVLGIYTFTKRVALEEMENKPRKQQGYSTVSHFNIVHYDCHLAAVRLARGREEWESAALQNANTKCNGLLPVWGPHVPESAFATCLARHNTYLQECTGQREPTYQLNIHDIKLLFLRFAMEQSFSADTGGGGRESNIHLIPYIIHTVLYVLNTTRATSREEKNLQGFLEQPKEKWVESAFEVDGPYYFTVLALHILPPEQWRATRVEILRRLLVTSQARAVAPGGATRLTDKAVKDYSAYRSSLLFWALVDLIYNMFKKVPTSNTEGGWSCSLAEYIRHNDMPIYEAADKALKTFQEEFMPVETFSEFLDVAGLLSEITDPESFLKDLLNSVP
UniProt P03129: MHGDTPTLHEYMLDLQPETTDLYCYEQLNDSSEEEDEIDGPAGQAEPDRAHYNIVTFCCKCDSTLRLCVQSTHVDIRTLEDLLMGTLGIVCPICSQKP
UniProt Q08999, residues 417-1139: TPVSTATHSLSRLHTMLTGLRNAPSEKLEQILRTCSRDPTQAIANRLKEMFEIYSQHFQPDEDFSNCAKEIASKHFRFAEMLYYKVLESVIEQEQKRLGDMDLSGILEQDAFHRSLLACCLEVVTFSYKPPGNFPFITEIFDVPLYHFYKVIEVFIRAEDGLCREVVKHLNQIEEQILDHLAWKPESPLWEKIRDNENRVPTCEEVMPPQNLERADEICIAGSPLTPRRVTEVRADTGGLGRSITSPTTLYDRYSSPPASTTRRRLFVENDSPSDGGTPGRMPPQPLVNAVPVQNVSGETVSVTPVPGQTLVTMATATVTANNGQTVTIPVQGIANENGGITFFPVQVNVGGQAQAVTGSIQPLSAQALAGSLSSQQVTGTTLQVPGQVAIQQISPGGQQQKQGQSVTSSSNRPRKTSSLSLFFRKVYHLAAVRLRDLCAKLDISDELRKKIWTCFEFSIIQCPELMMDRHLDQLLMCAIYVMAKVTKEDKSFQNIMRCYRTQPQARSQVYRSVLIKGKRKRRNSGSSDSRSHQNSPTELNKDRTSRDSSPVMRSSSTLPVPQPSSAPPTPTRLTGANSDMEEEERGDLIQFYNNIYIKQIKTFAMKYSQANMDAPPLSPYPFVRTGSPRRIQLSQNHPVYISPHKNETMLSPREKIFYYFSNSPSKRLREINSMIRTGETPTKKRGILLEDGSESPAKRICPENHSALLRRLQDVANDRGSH

Results are given in words; binding and its absence hold for the method and conditions named. In cells and extracts the contact can be indirect. Some results given as binding are weak or reduced against the parent protein; the word gives no strength. For part of these data: Tags and fused reporters may be left off the sequences shown.

Assay [1] addresses T1, GST-RB (379-928) (UniProt P06400).
T1 sequence (looked up): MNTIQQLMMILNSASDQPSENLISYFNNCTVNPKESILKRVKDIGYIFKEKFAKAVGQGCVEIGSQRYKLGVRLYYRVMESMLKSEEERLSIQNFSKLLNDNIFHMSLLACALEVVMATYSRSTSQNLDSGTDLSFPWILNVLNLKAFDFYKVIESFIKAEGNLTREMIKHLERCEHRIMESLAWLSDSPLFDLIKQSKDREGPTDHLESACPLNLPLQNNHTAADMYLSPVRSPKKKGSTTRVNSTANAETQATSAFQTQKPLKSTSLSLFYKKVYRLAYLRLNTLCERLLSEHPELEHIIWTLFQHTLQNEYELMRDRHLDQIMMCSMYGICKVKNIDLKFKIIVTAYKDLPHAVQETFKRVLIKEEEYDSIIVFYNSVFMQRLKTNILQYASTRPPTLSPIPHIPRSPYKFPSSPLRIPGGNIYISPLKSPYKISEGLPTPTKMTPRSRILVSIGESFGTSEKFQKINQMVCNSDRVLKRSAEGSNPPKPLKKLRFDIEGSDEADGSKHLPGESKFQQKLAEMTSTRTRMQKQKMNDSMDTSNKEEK
Nature of the assay: GST-RB (379-928) pull-down from extract of transfected COS-7 cells, anti-FLAG immunoblot.

For assay [2], the target named is T2, full-length RB with HA epitope tag (pTB701), exogenously expressed (UniProt P06400).
T2 sequence (looked up): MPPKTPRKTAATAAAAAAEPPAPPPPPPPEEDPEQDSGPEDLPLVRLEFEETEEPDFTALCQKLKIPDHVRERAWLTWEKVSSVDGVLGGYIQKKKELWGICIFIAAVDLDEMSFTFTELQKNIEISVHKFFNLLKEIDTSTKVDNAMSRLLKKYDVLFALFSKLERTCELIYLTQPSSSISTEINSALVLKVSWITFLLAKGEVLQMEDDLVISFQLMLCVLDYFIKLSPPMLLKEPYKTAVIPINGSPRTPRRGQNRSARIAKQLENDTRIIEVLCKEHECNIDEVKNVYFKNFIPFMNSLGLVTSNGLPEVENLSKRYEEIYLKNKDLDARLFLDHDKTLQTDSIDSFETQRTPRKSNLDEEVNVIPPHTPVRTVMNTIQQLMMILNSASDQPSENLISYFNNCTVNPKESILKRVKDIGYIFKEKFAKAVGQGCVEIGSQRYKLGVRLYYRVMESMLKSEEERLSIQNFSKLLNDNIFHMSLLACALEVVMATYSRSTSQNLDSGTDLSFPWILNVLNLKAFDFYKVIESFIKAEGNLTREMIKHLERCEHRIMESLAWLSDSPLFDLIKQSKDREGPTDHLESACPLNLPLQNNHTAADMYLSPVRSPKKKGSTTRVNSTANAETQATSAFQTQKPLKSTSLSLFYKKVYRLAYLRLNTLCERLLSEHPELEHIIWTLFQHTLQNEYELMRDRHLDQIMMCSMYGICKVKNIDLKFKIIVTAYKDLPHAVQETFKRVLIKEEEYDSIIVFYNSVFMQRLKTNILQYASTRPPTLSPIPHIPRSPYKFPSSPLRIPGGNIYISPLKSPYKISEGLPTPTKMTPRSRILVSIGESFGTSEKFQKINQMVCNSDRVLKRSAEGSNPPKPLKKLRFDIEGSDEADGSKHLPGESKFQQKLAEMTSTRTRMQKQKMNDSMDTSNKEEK
Kind of assay: co-immunoprecipitation from transfected COS-7 cells.

In assay [3] the target is T1, GST-RB (379-928). Kind of assay: GST-RB (379-928) pre-incubated with E7, GST pull-down, SDS-PAGE with Coomassie stain.
Assay [4] deals with T1, GST-RB (379-928). Kind of assay: GST-RB (379-928) pull-down of His-tagged fragment from E. coli; binding almost stoichiometric judging from the Coomassie-stained gel.
Assay [5] concerns the target MTAF600 (microtubule associated factor 600) (human) (UniProt Q5T4S7). Kind of assay: GST pull-down of large pocket domains, immunoblot.
Assay [6] has the same target. Nature of the assay: GST pull-down from HeLa nuclear extract, anti-MTAF600 immunoblot.

As to “FLAG-tagged MTAF600 (3910-4851) (from UniProt Q5T4S7 3910-4851)”, the binding entry in assay [1] and in assay [2] was “binds” in each case. Turning to “recombinant HPV-16 E7 (His-tagged) (from UniProt P03129 1-98)”, in assay [3], the binding result was “binds”.

For the substance “His-tagged MTAF600 (4293-4534) (from UniProt Q5T4S7 4293-4534)”, the binding result in assay [4] is recorded as “binds”.

Consider “GST fusion of the large pocket domain of p130 (from UniProt Q08999 417-1139)”, for which the binding entry in assay [5] and in assay [6] was “binds” in each case.
